Results reported in the supplement of paper PMC12595434, “Development of retinoid nuclear receptor pathway antagonists through targeting aldehyde dehydrogenase 1A3” (iScience, 2025).
The other results are listed elsewhere or left out. Single values of this set are uncertain.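 Many melting curves are irregular; where none melted, Tm was taken as 64 °C.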

Chains of the proteins cited; added tags and fusions are not shown. Lines headed by an entry give the natural chain unless they say otherwise; changes in a name come on top.
UniProt Q8TEK3: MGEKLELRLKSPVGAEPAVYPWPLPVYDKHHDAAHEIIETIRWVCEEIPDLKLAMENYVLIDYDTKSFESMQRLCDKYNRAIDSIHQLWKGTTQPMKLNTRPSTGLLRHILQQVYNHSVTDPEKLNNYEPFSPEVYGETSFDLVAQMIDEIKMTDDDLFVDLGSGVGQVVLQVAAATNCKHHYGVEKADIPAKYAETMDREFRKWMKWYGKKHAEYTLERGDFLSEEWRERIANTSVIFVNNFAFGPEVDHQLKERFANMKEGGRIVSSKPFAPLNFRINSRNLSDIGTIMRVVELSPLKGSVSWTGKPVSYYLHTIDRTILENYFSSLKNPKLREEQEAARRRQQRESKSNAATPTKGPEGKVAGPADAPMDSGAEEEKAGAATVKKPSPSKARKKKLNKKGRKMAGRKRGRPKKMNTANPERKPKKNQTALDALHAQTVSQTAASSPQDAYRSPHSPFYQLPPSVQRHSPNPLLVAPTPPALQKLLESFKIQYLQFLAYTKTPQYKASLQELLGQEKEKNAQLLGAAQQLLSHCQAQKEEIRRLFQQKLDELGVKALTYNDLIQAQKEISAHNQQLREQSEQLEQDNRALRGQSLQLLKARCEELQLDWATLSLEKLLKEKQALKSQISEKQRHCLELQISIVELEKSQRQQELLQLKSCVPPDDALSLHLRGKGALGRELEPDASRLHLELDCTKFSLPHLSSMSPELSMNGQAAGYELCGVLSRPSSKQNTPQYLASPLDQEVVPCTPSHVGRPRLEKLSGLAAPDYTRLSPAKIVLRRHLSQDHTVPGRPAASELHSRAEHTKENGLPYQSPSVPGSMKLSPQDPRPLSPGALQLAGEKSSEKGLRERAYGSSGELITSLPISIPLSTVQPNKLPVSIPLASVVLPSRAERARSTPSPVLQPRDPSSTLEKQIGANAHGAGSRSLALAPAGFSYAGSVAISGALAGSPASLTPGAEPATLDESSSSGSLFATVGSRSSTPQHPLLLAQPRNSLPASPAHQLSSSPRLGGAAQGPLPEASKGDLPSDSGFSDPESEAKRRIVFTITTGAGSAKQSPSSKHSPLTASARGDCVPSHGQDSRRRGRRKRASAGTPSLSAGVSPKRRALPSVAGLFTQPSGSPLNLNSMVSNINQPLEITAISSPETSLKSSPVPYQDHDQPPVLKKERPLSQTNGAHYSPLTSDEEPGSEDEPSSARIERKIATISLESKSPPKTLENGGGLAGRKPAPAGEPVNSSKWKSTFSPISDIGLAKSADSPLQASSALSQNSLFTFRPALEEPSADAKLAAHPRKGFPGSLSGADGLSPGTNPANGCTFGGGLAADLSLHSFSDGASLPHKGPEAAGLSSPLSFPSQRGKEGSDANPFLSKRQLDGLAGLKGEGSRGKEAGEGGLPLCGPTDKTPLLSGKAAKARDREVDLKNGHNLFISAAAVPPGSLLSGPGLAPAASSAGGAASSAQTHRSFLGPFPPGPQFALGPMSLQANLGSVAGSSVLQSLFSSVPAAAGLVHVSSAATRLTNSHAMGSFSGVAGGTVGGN
UniProt Q8WUM4: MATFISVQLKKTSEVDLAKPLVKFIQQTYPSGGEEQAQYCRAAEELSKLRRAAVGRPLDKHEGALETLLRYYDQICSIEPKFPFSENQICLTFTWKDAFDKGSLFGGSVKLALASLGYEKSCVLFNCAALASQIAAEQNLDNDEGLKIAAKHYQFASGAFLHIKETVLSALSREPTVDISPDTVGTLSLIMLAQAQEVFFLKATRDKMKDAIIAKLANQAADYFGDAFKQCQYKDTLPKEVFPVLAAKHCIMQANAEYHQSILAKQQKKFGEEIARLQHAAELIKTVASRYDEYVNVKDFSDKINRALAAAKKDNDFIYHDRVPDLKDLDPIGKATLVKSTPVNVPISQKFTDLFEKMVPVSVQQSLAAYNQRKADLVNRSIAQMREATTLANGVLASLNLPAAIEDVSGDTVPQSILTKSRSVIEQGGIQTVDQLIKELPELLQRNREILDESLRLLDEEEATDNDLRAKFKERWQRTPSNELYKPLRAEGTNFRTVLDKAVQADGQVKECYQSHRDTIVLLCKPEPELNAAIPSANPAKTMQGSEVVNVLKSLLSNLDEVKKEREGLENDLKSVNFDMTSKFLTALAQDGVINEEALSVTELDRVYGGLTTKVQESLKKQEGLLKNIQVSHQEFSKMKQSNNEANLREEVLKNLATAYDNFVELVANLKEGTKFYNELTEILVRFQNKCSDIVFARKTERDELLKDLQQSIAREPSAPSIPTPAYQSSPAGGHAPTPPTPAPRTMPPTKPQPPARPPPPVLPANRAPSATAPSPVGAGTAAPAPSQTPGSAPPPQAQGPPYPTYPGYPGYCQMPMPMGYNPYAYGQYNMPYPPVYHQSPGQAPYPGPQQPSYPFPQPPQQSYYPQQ
UniProt Q8NDI1: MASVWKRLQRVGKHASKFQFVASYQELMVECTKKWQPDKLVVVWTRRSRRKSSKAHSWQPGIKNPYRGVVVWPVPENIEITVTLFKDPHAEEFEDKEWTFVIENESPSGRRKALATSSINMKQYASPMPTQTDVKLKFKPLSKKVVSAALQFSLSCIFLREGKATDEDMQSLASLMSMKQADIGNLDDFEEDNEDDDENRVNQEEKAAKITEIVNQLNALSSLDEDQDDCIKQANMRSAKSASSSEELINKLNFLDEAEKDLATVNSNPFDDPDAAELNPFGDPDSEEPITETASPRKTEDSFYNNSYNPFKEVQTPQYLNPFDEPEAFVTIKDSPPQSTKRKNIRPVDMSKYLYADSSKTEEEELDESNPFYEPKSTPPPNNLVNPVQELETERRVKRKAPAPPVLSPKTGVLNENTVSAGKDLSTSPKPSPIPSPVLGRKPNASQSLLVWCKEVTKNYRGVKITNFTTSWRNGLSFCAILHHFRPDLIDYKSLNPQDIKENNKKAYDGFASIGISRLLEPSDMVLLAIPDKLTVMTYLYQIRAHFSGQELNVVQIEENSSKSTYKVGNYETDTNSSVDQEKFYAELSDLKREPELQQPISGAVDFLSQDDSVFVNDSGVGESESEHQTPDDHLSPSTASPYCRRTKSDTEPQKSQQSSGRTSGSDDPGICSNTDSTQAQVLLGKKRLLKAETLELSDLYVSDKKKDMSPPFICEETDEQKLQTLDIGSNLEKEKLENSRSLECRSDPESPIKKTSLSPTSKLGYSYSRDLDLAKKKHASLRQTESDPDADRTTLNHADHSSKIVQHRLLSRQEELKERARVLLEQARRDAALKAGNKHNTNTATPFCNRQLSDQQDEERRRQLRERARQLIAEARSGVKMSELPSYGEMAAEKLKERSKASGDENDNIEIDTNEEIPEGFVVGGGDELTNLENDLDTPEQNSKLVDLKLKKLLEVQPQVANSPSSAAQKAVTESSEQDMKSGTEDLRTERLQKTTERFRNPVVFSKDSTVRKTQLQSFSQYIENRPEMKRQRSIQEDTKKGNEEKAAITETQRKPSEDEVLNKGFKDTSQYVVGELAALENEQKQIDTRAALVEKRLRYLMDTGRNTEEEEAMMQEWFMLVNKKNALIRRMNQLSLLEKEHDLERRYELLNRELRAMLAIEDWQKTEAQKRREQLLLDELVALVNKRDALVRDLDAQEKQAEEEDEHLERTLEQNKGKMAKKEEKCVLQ

Compound: CCc1cnccc1C(=O)Nc1cc2c(cc1F)NC(=O)CC2
Assay: melting temperature shift (DMSO Tm minus MBE1-treated Tm) in cellular thermal proteome profiling; higher = less thermal stabilization by MBE1 (negative = stabilized by MBE1)
Settings: A375

UniProt Q8TEK3
melting temperature shift (MBE1 concentration: 100 nM): -0.701 °C | melting temperature shift (MBE1 concentration: 1 uM): -0.102 °C

PDCD6IP (UniProt Q8WUM4)
melting temperature shift (MBE1 concentration: 100 nM): -0.193 °C | melting temperature shift (MBE1 concentration: 1 uM): -0.395 °C

EHBP1 (UniProt Q8NDI1)
melting temperature shift (MBE1 concentration: 100 nM): -1.19 °C | melting temperature shift (MBE1 concentration: 1 uM): -0.88 °C
